Measured values reported in publication PMC6345199.
Results are given in words; binding and its absence hold for the method and conditions named. Binding seen in cells or lysates may run through a third protein. Some results given as binding are weak or reduced against the parent protein; the word gives no strength.

Chains of the proteins cited; added tags and fusions are not shown. Residues count along the entry.
UniProt Q9Y328: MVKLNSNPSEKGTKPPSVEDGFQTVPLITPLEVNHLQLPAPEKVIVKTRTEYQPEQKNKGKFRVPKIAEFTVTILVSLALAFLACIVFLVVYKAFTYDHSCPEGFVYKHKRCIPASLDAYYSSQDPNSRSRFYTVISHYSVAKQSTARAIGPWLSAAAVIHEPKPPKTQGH
UniProt P19490, residues 19-907: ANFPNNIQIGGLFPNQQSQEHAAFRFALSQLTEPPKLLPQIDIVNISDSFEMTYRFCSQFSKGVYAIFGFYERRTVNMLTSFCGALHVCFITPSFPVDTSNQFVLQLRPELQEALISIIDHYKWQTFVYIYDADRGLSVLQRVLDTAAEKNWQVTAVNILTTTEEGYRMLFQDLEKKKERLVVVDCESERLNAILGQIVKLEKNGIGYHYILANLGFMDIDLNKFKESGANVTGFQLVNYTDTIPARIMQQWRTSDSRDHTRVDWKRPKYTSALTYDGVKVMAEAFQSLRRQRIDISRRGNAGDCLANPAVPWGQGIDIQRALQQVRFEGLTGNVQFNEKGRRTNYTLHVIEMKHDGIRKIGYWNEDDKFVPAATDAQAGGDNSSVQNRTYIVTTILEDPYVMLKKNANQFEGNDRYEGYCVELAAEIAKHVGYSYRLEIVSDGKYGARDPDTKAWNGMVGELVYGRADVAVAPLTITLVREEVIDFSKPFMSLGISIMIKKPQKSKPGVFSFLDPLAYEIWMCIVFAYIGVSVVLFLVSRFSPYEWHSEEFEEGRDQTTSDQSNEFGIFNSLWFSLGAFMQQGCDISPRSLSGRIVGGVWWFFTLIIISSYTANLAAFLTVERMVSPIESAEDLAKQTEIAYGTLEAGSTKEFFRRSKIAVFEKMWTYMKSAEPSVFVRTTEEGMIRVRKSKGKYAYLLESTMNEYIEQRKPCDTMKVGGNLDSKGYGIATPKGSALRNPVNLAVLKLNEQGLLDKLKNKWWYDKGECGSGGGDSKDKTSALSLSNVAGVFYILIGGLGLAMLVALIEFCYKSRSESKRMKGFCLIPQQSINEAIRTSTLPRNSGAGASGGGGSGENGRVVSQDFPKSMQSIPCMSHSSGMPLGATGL

Key:
[1] = molecular target: NSG2-mCherry (human neuron-specific gene 2 fused to mCherry) (human) (UniProt Q9Y328); test: co-IP; HEK293T co-expressing NSG2-mC and either YFP-GluA1 or GFP-GluA2; lysate in 50 mM Tris, 150 mM NaCl, 1 mM EDTA, 1% Triton X-100, pH 7.4; 1.5 mg total protein; NSG2-mC precipitated with anti-RFP/mCherry monoclonal antibody agarose; GluA1 and GluA2 detected by capillary immunoelectrophoresis (Wes)
YFP-GluA1 = YFP-GluA1 (UniProt P19490); test: co-IP; whole-cell lysates of HEK293T co-expressing unlabeled NSG2 with YFP-GluA1 or GFP-GluA2; 2 mg total protein with 4 ug mouse anti-GluA1 (RH95) or anti-GluA2 (6C4) overnight at 4 C, protein A/G agarose; NSG2 detected by capillary immunoelectrophoresis (Wes)

With “YFP-GluA1 (from UniProt P19490 19-907) (receptor)” the binding [1] was “binds”.

“unlabeled NSG2 (overexpressed) (from UniProt Q9Y328 1-171)” was tested, and the binding (YFP-GluA1) was “binds”.
